# Reference: the supplement of paper PMC8728848
# Some of the results follow.
# B1: SAOUHSC 02783 (Staphylococcus aureus), Q5HD69 (protein)
# chain: MIHSKKLTLGICLVLLIILIVGYVIMTKTNGRNAQIKDTFNQTLKLYPTKNLDDFYDKEGFRDQEFKKGDKGTWIVNSEMVIEPKGKDMETRGMVLYINRNTRTTKGYYFISEMTDDSNGRPKDDEKRYPVKMEHNKIIPTKPLPNDKLKKEIENFKFFVQYGNFKDINDYKDGDISYNPNVPSYSAKYQLNNDDYNVQQLRKRYDIPTKQAPKLLLKGDGDLKGSSVGSRSLEFTFVENKEENIYFTDSVQYTPSEDTRYESN
# Assays:
# Assay in all cases: glycan array binding signal (z-score within array); higher = stronger binding
# Conditions in all cases: glycan notation: IUPAC condensed, linker removed
# Gal6S(b1-4)Glc6S = biological target: Gal6S(b1-4)Glc6S
# Outline: (§1)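 Columns mapping to the same glycan were averaged after glycan names were converted to IUPAC-condensed notation. The data come from 3228 arrays in the Consortium for Functional Glycomics database, limited to those with an available protein sequence. Binding is reported as a within-array Z-score averaged across arrays of one protein sequence and across linkers.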
# Gal6S(b1-4)GlcNAc = biological target: Gal6S(b1-4)GlcNAc
# Outline: as §1
# Gal6S(b1-4)GlcNAc6S = biological target: Gal6S(b1-4)GlcNAc6S
# Outline: as §1
# GalNAc(a1-3)Gal = biological target: GalNAc(a1-3)Gal
# Outline: as §1
# GalNAc(a1-3)GalNAc = biological target: GalNAc(a1-3)GalNAc
# Outline: as §1
# [1] = biological target: GalNAc(a1-3)GalNAc(b1-3)Gal(a1-4)Gal(b1-4)Glc
# Outline: as §1
# [2] = biological target: GalNAc(a1-3)GalNAc(b1-3)Gal(a1-4)Gal(b1-4)GlcNAc
# Outline: as §1
# GalNAc(b1-3)Gal = biological target: GalNAc(b1-3)Gal
# Outline: as §1
# [3] = biological target: GalNAc(b1-3)Gal(a1-4)Gal(b1-4)GlcNAc
# Outline: as §1
# [4] = biological target: GalNAc(b1-3)Gal(a1-4)Gal(b1-4)GlcNAc(b1-3)Gal(b1-4)Glc
# Outline: as §1
# [5] = biological target: GalNAc(b1-3)Gal(a1-6)Gal(b1-4)Glc
# Outline: as §1
# GalNAc(b1-3)GalNAc = biological target: GalNAc(b1-3)GalNAc
# Outline: as §1
# GalNAc(b1-3)GlcNAc = biological target: GalNAc(b1-3)GlcNAc
# Outline: as §1
# GalNAc(b1-4)Gal(b1-4)Glc = biological target: GalNAc(b1-4)Gal(b1-4)Glc
# Outline: as §1
# GalNAc(b1-4)GlcNAc = biological target: GalNAc(b1-4)GlcNAc
# Outline: as §1
# [6] = biological target: GalNAc(b1-4)GlcNAc(b1-2)Man
# Outline: as §1
# [7] = biological target: GalNAc(b1-4)GlcNAc(b1-2)Man(a1-3)[GalNAc(b1-4)GlcNAc(b1-2)Man(a1-6)]Man(b1-4)GlcNAc(b1-4)GlcNAc
# Outline: as §1
# [8] = biological target: GalNAc(b1-4)GlcNAc(b1-3)GalNAc(b1-4)GlcNAc
# Outline: as §1
# GalNAc(b1-4)GlcNAc6S = biological target: GalNAc(b1-4)GlcNAc6S
# Outline: as §1
# GalNAc(b1-6)GalNAc = biological target: GalNAc(b1-6)GalNAc
# Outline: as §1
# GalNAc3S(b1-4)GlcNAc = biological target: GalNAc3S(b1-4)GlcNAc
# Outline: as §1
# GalNAc3S(b1-4)GlcNAc3S = biological target: GalNAc3S(b1-4)GlcNAc3S
# Outline: as §1
# [9] = biological target: GalNAc3S(b1-4)[Fuc(a1-3)]GlcNAc
# Outline: as §1
# GalNAc4S6S(b1-4)GlcNAc = biological target: GalNAc4S6S(b1-4)GlcNAc
# Outline: as §1
# GalNAc6S(b1-4)GlcNAc = biological target: GalNAc6S(b1-4)GlcNAc
# Outline: as §1
# Glc(a1-4)Glc = biological target: Glc(a1-4)Glc
# Outline: as §1
# [10] = biological target: Glc(a1-4)Glc(a1-4)Glc(a1-4)Glc
# Outline: as §1
# Glc(a1-6)Glc(a1-6)Glc = biological target: Glc(a1-6)Glc(a1-6)Glc
# Outline: as §1
# [11] = biological target: Glc(a1-6)Glc(a1-6)Glc(a1-6)Glc
# Outline: as §1
# Glc(b1-4)Glc = biological target: Glc(b1-4)Glc
# Outline: as §1
# Glc(b1-6)Glc = biological target: Glc(b1-6)Glc
# Outline: as §1
# GlcA(b1-3)Gal = biological target: GlcA(b1-3)Gal
# Outline: as §1
# GlcA(b1-3)GlcNAc = biological target: GlcA(b1-3)GlcNAc
# Outline: as §1
# GlcA(b1-6)Gal = biological target: GlcA(b1-6)Gal
# Outline: as §1
# [12] = biological target: GlcA3S(b1-3)Gal(b1-4)GlcNAc(b1-2)Man
# Outline: as §1
# [13] = biological target: GlcA3S(b1-3)Gal(b1-4)GlcNAc(b1-3)Gal(b1-4)Glc
# Outline: as §1
# [14] = biological target: GlcNAc(a1-3)Gal(b1-4)GlcNAc
# Outline: as §1
binder,measurement,setting,value
B1,glycan array binding signal (z-score),Gal6S(b1-4)Glc6S,-0.573
same,glycan array binding signal (z-score),Gal6S(b1-4)GlcNAc,0.166
same,glycan array binding signal (z-score),Gal6S(b1-4)GlcNAc6S,-0.5
same,glycan array binding signal (z-score),GalNAc(a1-3)Gal,-1.02
same,glycan array binding signal (z-score),GalNAc(a1-3)GalNAc,-0.467
same,glycan array binding signal (z-score),[1],-0.793
same,glycan array binding signal (z-score),[2],2.14
same,glycan array binding signal (z-score),GalNAc(b1-3)Gal,1.71
same,glycan array binding signal (z-score),[3],-0.34
same,glycan array binding signal (z-score),[4],0.615
same,glycan array binding signal (z-score),[5],0.426
same,glycan array binding signal (z-score),GalNAc(b1-3)GalNAc,0.078
same,glycan array binding signal (z-score),GalNAc(b1-3)GlcNAc,-0.057
same,glycan array binding signal (z-score),GalNAc(b1-4)Gal(b1-4)Glc,-0.635
same,glycan array binding signal (z-score),GalNAc(b1-4)GlcNAc,-0.94
same,glycan array binding signal (z-score),[6],-1.26
same,glycan array binding signal (z-score),[7],0.776
same,glycan array binding signal (z-score),[8],0.9
same,glycan array binding signal (z-score),GalNAc(b1-4)GlcNAc6S,0.614
same,glycan array binding signal (z-score),GalNAc(b1-6)GalNAc,-0.896
same,glycan array binding signal (z-score),GalNAc3S(b1-4)GlcNAc,-0.138
same,glycan array binding signal (z-score),GalNAc3S(b1-4)GlcNAc3S,-0.052
same,glycan array binding signal (z-score),[9],-1.08
same,glycan array binding signal (z-score),GalNAc4S6S(b1-4)GlcNAc,-0.245
same,glycan array binding signal (z-score),GalNAc6S(b1-4)GlcNAc,-0.879
same,glycan array binding signal (z-score),Glc(a1-4)Glc,0.82
same,glycan array binding signal (z-score),[10],1.43
same,glycan array binding signal (z-score),Glc(a1-6)Glc(a1-6)Glc,-0.322
same,glycan array binding signal (z-score),[11],-0.71
same,glycan array binding signal (z-score),Glc(b1-4)Glc,-1.03
same,glycan array binding signal (z-score),Glc(b1-6)Glc,0.024
same,glycan array binding signal (z-score),GlcA(b1-3)Gal,-0.403
same,glycan array binding signal (z-score),GlcA(b1-3)GlcNAc,-0.267
same,glycan array binding signal (z-score),GlcA(b1-6)Gal,2.83
same,glycan array binding signal (z-score),[12],0.195
same,glycan array binding signal (z-score),[13],1.27
same,glycan array binding signal (z-score),[14],-1.29

# Rewritten bar-delimited: part of the list above.
binder | measurement | setting | value
B1 | glycan array binding signal (z-score) | [11] | -0.71
same | glycan array binding signal (z-score) | Glc(b1-4)Glc | -1.03
